# Screening data, single-dose tests

Sequences of proteins named here, by UniProt entry; tags and fusion partners are left off. Residues count along the entry.
UniProt Q4DA54, 1-478: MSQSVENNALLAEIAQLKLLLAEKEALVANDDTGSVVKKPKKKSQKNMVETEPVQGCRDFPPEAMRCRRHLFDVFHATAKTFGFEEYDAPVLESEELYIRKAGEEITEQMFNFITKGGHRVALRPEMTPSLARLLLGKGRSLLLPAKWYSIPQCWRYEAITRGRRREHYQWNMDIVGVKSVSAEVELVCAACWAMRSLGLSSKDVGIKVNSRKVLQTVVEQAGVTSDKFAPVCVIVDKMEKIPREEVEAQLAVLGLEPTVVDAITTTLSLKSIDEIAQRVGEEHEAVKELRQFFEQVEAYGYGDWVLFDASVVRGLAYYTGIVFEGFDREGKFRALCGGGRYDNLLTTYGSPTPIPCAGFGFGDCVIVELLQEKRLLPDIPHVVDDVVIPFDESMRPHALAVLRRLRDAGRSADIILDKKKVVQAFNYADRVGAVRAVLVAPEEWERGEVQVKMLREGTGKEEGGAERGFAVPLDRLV
UniProt P9WNZ1, whole entry: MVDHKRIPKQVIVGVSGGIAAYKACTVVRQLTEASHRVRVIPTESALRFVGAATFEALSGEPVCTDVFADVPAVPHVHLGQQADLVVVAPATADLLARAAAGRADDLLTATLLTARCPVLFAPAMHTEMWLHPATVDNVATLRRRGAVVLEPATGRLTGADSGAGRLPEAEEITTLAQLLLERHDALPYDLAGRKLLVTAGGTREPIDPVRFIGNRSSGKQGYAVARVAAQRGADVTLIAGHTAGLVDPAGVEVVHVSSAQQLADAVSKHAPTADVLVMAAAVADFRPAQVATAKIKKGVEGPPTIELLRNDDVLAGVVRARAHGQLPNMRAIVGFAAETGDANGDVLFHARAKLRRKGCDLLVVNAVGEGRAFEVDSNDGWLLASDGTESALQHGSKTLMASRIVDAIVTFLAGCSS
UniProt A4I591, 1-473: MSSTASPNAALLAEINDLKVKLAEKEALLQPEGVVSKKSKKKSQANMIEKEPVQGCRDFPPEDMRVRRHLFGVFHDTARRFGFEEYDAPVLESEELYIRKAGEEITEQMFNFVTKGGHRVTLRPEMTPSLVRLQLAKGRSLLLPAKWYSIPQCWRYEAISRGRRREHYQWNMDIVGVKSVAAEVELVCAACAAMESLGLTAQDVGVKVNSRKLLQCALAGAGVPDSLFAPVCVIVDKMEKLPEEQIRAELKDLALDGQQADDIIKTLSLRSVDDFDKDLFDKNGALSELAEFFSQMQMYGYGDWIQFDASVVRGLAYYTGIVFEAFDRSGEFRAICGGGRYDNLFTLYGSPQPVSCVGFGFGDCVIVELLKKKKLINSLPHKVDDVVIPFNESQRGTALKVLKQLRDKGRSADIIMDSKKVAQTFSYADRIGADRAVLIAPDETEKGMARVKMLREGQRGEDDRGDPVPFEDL

Data taken from ChEMBL document CHEMBL3988442, “University of Dundee, Small-Polar-MMV Screening Library” (2021).

TcHisRS: 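Enzyme assay of histidyl-tRNA synthetase; the read-out is not stated. Target: Histidine-tRNA ligase, Trypanosoma cruzi CL Brener (UniProt Q4DA54). Concentration: 30 µM. Higher reads as stronger inhibition (inferred: compounds with an IC50 in retests scored well above the rest). Size under these conditions: about 69,000 compounds, about 31 of them at 50% or above in at least one test.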
Leishmania in macrophages: 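Cell assay of Leishmania donovani living inside macrophages; the read-out is not stated. Concentration: 30 µM. The record gives no direction; compounds that gave an IC50 in retests scored well above the rest, so higher reads as stronger inhibition. About 69,000 compounds were tested under these conditions; 1.5% (about 1,000) showed 50% or more at least once.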
Toxoplasma: 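Assay of Toxoplasma gondii numbers, read through their beta-galactosidase reporter with a colour substrate. Compounds at 10 µM. The record gives no direction; the compounds picked for IC50 retests had high values, so higher reads as fewer parasites. About 67,000 compounds were tested under these conditions; 0.38% (about 260) showed 50% or more at least once.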
CoaBC: 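Enzyme assay of CoaBC with a phosphate dye (Biomol Green) read at 650 nm. Target: Coenzyme A biosynthesis protein CoaBC, Mycobacterium tuberculosis (UniProt P9WNZ1). Compounds at 30 µM. Higher reads as stronger inhibition, judged from the few compounds that gave an IC50. Most strong results did not repeat in a second test. About 67,000 compounds were tested under these conditions; 0.06% (about 40) showed 50% or more at least once.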
LiHisRS: 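Histidine-tRNA ligase, Leishmania infantum (UniProt A4I591). Enzyme assay of histidyl-tRNA synthetase; the read-out is not stated. Concentration: 30 µM. The record gives no direction; compounds that gave an IC50 in retests scored well above the rest, so higher reads as stronger inhibition. The assay is labelled LdHisRS but filed under L. infantum. Of about 69,000 compounds tested this way, about 410 (0.6%) reached 50% or more in at least one test.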

The filed quantity is “Percent Effect” (%).
The controls that fix the scale are not given in the record; negative values are as filed.
Compounds were drawn at random from those tested, without regard to their results.
Two or more numbers in one place are separate tests of the same structure; such repeats can differ widely.
A dash means the value is not listed here; it may have been measured.

compound,TcHisRS,Leishmania in macrophages,Toxoplasma,CoaBC,LiHisRS
Cc1nccn1-c1ccc(=O)n(CCNC(=O)c2ccncc2)n1,7%,-31.37%,7.464%,-2.906%,13.04%
c1ncc(CN2CC(Cc3nccc4cc[nH]c34)C2)cn1,9.302%,-18.97%,12.32%,-4.049%,14.18%
[H][C@@]12CN(CC3CCCCC3)CC[C@]1([H])N(C(C)=O)C[C@H]2c1ccsc1,-,7.835% & 1.725%,12.16%,-,-
[H][C@@]12CCN(Cc3c(C)noc3C)C[C@@]1([H])O[C@@H](c1ccncn1)C2,-,12.33%,-15.24%,-,-
CN(C)S(=O)(=O)N1CCCC(C)(c2ncc(C(N)=O)s2)C1 (stereo not shown),4.135%,4.448%,-2.196%,-2.797%,5.674%
c1cc(-c2nccn2CCc2nc3c(s2)CCC3)ccn1,0.4926%,-30.98%,-4.756%,6.774%,19.74%
O=C(NCC1CC1)Nc1ccc(OCC(F)(F)F)nc1,7.331%,12.25%,-9.468%,9.737%,12.04%
O=S(=O)(CCCN1CCCC(Cn2cncn2)C1)c1ccccc1 (stereo not shown),1.425%,20.56%,-8.648%,0.2681%,8.547%
[H][C@@]12CN(Cc3ccc(F)c(F)c3)C[C@]1([H])OCC(=O)N2CC(N)=O,-,24.42%,9.841%,-,-
CC(=O)NCCC(=O)NCc1cc(Br)ccc1OC(F)F,10%,20.31%,11.51%,4.959%,16.96%
N#Cc1ccc(N2CC3(CCN(c4nccs4)C3)C2)nc1.O=CO.O=CO,-,9.16%,-5.448%,-,-
O=C(O)CN1CCC(c2ccccc2)C1 (stereo not shown),6.186%,2.668%,-0.599%,-5.189%,16.48%
CC(c1cn2ncsc2n1)N1Cc2ncccc2C1=O (stereo not shown),2.155%,-2.812%,-3.972%,2.662%,21.52%
Cc1cc(OCC(=O)NS(=O)(=O)c2cccnc2)ccc1Cl,8.824%,21.67%,-10.46%,5.115%,-47.71%
Cc1cccc2cc(CN3CCC(O)(CN4CCCC4)CC3)c(=O)[nH]c12,0.9662%,-25.39%,-16.57%,-0.1242%,19.17%
COc1ccc(NC(=O)Cn2c(=O)nc(N)c3cc(C)sc32)cc1,-6.931%,31.67%,7.547%,-1.332%,16.3%
COCc1nccc(C2CCCN(Cc3ccc(SC)cc3)C2)n1 (stereo not shown),25.86%,13.44%,-1.123%,-0.1965%,6.14%
CCOC1CCCN(C(=O)c2[nH]nc(C(C)C)c2Br)C1 (stereo not shown),0%,-16.56%,-11.81%,17.36%,14.29%
CCC1CN(Cc2nnc(C3CC3)o2)CCC(=O)N1Cc1ccccc1 (stereo not shown),6.122%,-16.44%,-9.005%,0.8739%,9.917%
c1coc(-c2noc(CN3CCCCC3Cn3cncn3)n2)c1 (stereo not shown),2.857%,10.83%,22.45%,-1.312%,5.085%
CCc1cnc(C(C)NC(=O)N2CCCN(CC(F)F)CC2)s1 (stereo not shown),2.646%,18.68%,-14.13%,-2.982%,9.333%
COCCNC(=O)c1cc(C(C)C)nc(N2CCCCC2)n1,2.609%,29.01%,16.5%,-2.54%,1.724%
CS(=O)(=O)N1CCN(Cc2cccs2)CC(C(N)=O)C1 (stereo not shown),7.447%,10.85%,16.42%,2.451%,13.54%
CNc1cc(C)nc(NCc2cc(C)cc3c(C)c(C)[nH]c23)n1,5.422%,-40.33%,26.49%,1.585%,-6.593%
CC(C)c1ccc(OCC(=O)N(C)C)cc1,-1.288%,-8.19%,3.368%,-10.17%,4.918%
CN(C)c1cc(C(=O)Nc2ccccc2C(=O)NC(C)(C)C)ccn1,8.929%,2.819%,-1.311%,1.096%,22.58%
CCn1c(CC2CCN(S(=O)(=O)Cc3ccccc3)CC2)nn(C)c1=O,0.8%,-10.03%,-3.461%,-3.247%,9.836%
CCN(Cc1ccccc1C)S(C)(=O)=O,8.152%,33.15%,7.633%,-7.851%,5.333%
CCOCC1CN(Cc2cnn(C)c2)Cc2ncn(C)c21 (stereo not shown),9.091%,20.21%,3.389%,1.681%,7.273%
COCCCC1(CO)CCCN(CCc2ccccc2)C1 (stereo not shown),3.306%,10.24%,-2.08%,-4.904%,3.846%
c1coc(CN2CCO[C@H]3[C@@H](OCC4CC4)CC[C@@H]32)c1,10.61%,-,-,0.1212%,9.615%
CCCNC(=O)c1cncc(CC2CCCN(C)C2)c1 (stereo not shown),3.745%,2.159%,5.893%,-2.107%,0%
CNc1cc(C)nc(N2C[C@@H](C(=O)O)[C@H](C3CC3)C2)n1,1.087%,1.34%,-3.984%,2.621%,12.12%
O=C(O)C(F)(F)F.[H][C@@]12CN(C(=O)c3ccco3)C[C@]1([H])OCCN2c1ncccn1,-,5.212%,1.233%,-,-
O=C(CNc1nc(C2CC2)ns1)N1CCc2sccc2C1,8.621%,-6.543%,2.519%,1.587%,9.821%
O=C(O)C(F)(F)F.O=C(O)C(F)(F)F.[H][C@@]12CN(Cc3ccoc3)CCO[C@]1([H])CN(Cc1cnn(C)c1)C2,-,14.4%,-3.88%,-,-

Some entries from above, unchanged:

compound	TcHisRS	Leishmania in macrophages	Toxoplasma	CoaBC	LiHisRS
O=C(O)C(F)(F)F.[H][C@@]12CN(C(=O)c3ccco3)C[C@]1([H])OCCN2c1ncccn1	-	5.212%	1.233%	-	-
CCN(Cc1ccccc1C)S(C)(=O)=O	8.152%	33.15%	7.633%	-7.851%	5.333%